Construct, isoform or probe ends are uncertain for at least one entry.

Chains of the proteins cited; added tags and fusions are not shown. A line that says so, or that is headed by a name, gives the form on record, which may keep a tag or linker.
c-Rel homodimer, one chain, as listed by the source: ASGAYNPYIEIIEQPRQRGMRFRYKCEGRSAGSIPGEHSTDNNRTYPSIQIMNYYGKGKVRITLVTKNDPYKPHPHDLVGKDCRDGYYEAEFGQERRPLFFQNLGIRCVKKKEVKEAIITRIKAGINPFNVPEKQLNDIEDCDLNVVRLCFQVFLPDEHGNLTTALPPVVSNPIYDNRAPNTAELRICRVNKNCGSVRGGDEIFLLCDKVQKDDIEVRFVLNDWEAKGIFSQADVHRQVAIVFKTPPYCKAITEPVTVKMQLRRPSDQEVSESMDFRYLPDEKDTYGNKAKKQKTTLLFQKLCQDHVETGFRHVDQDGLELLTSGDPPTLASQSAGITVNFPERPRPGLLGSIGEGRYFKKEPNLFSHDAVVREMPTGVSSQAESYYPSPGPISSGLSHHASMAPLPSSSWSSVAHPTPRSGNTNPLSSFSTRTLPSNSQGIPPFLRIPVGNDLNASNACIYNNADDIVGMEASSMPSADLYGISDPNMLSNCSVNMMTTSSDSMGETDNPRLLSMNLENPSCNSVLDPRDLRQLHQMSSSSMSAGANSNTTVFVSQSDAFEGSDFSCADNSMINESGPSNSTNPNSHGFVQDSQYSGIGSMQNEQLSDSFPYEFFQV

For the series, the system named is c-Rel homodimer. Nature of the series: EMSA. The settings on record: purified recombinant protein.

Consider “CCAGGAGATTCCACCCAGGAGATTCCACCCAGGAGATTCCAC (double strand) [CK-1 phosphodiester duplex]”, for which the binding result is given as “binds”.
For the sequence “CCAGGAGATTCCAC (double strand) [CK-14 phosphodiester duplex]”, the binding result (behaved similarly to CK-1, variant of CK-1 phosphodiester duplex) was “binds”.
